Measured data: PubChem BioAssay AID743454 (Peter MacCallum Cancer Centre, 2014)

Screen: 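Knock-downs lowering viability or raising caspase 3/7 activity in vorinostat-treated resistant cells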 (primary screen)
Cell system: human HCT116-VR colon cancer cells, selected for vorinostat resistance
Knock-down reagent: siRNA pool against human genes, 40 nM siRNA pool
Timing: vorinostat for 24 h, read-out about 72 h after transfection
Conditions: vorinostat at 2.5 µM final
Measured: 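Two measures, CellTiter-Fluor viability and luminescent caspase 3/7 activity, each as fold change against same-plate mock wells, mean of duplicates, then screen-wide robust z-score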
Direction: viability robust z-score: higher = more viable cells than screen typical; caspase robust z-score: higher = more caspase 3/7 activity than screen typical
Active means: 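a knock-down is a hit when classed RV1 or RV2 for lowered viability, or CA1 or CA2 for caspase activation; those lethal without drug were dropped; hits were retested singly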
This is an unselected part of about 18,000 deposited reagents. 450 of them (2.5%) count as active. 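Single biological run; no consistent viability z cut-off exists, so the class columns, not z-scores, define the calls.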 A number with no mark means an inactive call.

| target gene | viability hit class | caspase hit class | viability robust z-score | caspase robust z-score |
| --- | --- | --- | --- | --- |
| ELP3 | no change | no change | -0.68 | 0.44 |
| KLHL10 | no change | no change | -0.47 | 1.19 |
| OR10G8 | no change | no change | 0.96 | -0.9 |
| VTCN1 | no change | no change | 0.81 | 0.15 |
| SCCPDH | no change | no change | 0.66 | 0.78 |
| STOML1 | no change | no change | 0.07 | 1.21 |
| COX15 | no change | no change | 1.28 | -0.6 |
| SLC16A14 | no change | no change | 0 | 1.75 |
| GALP | no change | no change | 0.59 | 0.91 |
| UNC5C | no change | no change | -0.22 | 0.82 |
| RASSF5 | no change | no change | 1.18 | -0.38 |
| GPR157 | no change | no change | -0.05 | 0.72 |
| SERPINH1 | no change | no change | 1.25 | 0.28 |
| CHD1 | no change | no change | 0.83 | -1 |
| OR4C46 | no change | no change | -0.82 | 0.27 |
| IDUA | no change | no change | -0.98 | 1.28 |
| IFITM1 | no change | no change | -0.94 | -0.3 |
| SRSF5 | no change | no change | -0.53 | 4.29 |
| COMMD4 | no change | no change | -1.29 | -1.28 |
| DEPDC7 | no change | no change | 1.5 | -0.2 |
| C2orf78 | no change | no change | 0.87 | -0.12 |
| DLG4 | no change | no change | -0.24 | 0.32 |
| SCN8A | no change | no change | 0.03 | 2.4 |
| DRG1 | no change | no change | 0.26 | -0.29 |
| LGALSL | no change | no change | -0.28 | 0.34 |
| DPH1 | no change | no change | -0.21 | 0.66 |
| POF1B | no change | no change | -0.44 | -0.85 |
| ASB7 | no change | no change | 0.84 | -0.39 |
| PSMB6 | no change | no change | -5.9 | 2.83 |
| KLHL27 | no change | no change | 0.12 | 0.3 |
| CACFD1 | no change | no change | 0.06 | -0.59 |
| RELB | no change | no change | 1.02 | 3.5 |
| ARHGAP33 | no change | no change | -1.02 | 0.32 |
| SERHL2 | no change | no change | 0.62 | 0.62 |
| PDE6C | no change | no change | 1.1 | 0.54 |
| RPP40 | no change | no change | 1.54 | -1.12 |
| SURF6 | no change | no change | -0.96 | 3.84 |
| FNDC8 | no change | no change | -0.08 | 4.39 |
| KLHL4 | no change | no change | 0.75 | -0.79 |

4 entries from above, sorted by “caspase robust z-score”, ascending:
| target gene | viability hit class | caspase hit class | viability robust z-score | caspase robust z-score |
| --- | --- | --- | --- | --- |
| POF1B | no change | no change | -0.44 | -0.85 |
| ASB7 | no change | no change | 0.84 | -0.39 |
| DPH1 | no change | no change | -0.21 | 0.66 |
| PSMB6 | no change | no change | -5.9 | 2.83 |
